Rmax data for 1 substance are collected here from patent publication US10646600B2, “HER2 polypeptides useful for imaging and monitoring tumors and cancers” (GE HEALTHCARE LIMITED, priority 2013, dated 2020).

The series deals with rhesus HER2. The series can be described thus: Surface Plasmon Resonance, rhesus HER2-ECD-Fc. In kind it is binding. As to the method: To characterize the affinity of [^19F]GE-226[SEQ ID NO 1] to HER2 protein, Surface Plasmon Resonance studies were conducted. Human, rhesus and rat HER2-ECD-Fc (SINO Biological, Beijing, China, Cat. Nr: 10004-H02H, 90020-K02H, and 80079-R02H), as well as human HER2-ECD-Fc-6×His (R&D Systems, Minneapolis, Minn., Cat. Nr: 1129-ER) and p95HER2 ECD-Fc-6×His (Syngene, Cambridge, United Kingdom) were diluted with 50 mM sodium acetate pH 4.5 (Biacore (GE Healthcare, Buckinghamshire, UK) coupling buffer) to a final concentration of 10 μg/mL. Antigen coupling to Biacore sensor chip CMS (Cat. Nr: BR-1005-30) was done according to amine coupling protocol from the instrument manual […]. HBS-EP buffer (10 mM HEPES pH 7.4, 150 mM NaCl, 3 mM EDTA and 0.005% surfactant P20; GE Healthcare, Little Chalfont, United Kingdom, Cat. Nr: BR-1006-69) was used as running buffer and as solvent for the substances. The affinity studies were performed using a Biacore T100 (GE Healthcare). [^19F]GE-226 was diluted in HBS-EP buffer to 50 nM, 25 nM, 12.5 nM, 6.25 nM, 3.125 nM, 1.56 nM, 0.78 nM, 0.39 nM, 0.195 nM, 0.097 nM, 0.049 nM and 0 nM. The flow cells of the first chip comprised of blank, human HER2-ECD-Fc-6×His, p95HER2-ECD-Fc-6×His batch I and p95HER2-ECD-Fc-6×His batch II. The flow cells on the second chip contained blank, human HER2-ECD-Fc, rhesus HER2-ECD-Fc and rat HER2 ECD-Fc. […]

Substance “[^19F]GE-226: cold unlabeled non-radioactive 19F analogue of the tracer, used for SPR and blocking” came in with an Rmax of 138.1.
